Values are animals surviving of animals treated; these mice carried no tumour. Survivors were counted at the toxicity check, usually on the fifth day, unless a day is given; later deaths do not show. Schedule codes are those of the source, read here as Q, the interval in days (D) or hours (H), X, the number of doses. Some doses were run more than once; their values stand side by side, smallest first.
Tested on: B6D2F1 mice, nontumored toxicity test, survival
Test: NCI In Vivo Anticancer Drug Screen. Data for tumor model Nontumored Animals (Toxicity Test) in B6D2F1 (BDF1) mice

SMILES: CC1CCC(NC(=O)N(CCCl)N=O)CC1 (centres undefined)
- survivor count (dose: 3.0 mg/kg/injection, schedule: Q01DX009 (ip), vehicle: saline): 6 of 6
- survivor count (dose: 3.0 mg/kg/injection, schedule: Q03HX008 (ip), vehicle: saline): 6 of 6
- survivor count (dose: 3.0 mg/kg/injection, schedule: Q03HX016 (ip), vehicle: saline): 6 of 6
- survivor count (dose: 3.0 mg/kg/injection, schedule: Q03HX024 (ip), vehicle: saline): 6 of 6
- survivor count (dose: 3.12 mg/kg/injection, schedule: Q01DX017 (ip), vehicle: saline): 6 of 6
- survivor count (dose: 3.12 mg/kg/injection, schedule: Q06HX012 (ip), vehicle: saline): 6 of 6
- survivor count (dose: 3.24 mg/kg/injection, schedule: Q04DX003 (ip), vehicle: other): 5 of 5
- survivor count (dose: 3.75 mg/kg/injection, schedule: Q04DX003 (ip), vehicle: other): 4 of 4
- survivor count (dose: 5.0 mg/kg/injection, schedule: Q01DX005 (ip), vehicle: saline): 6 of 6
- survivor count (dose: 5.0 mg/kg/injection, schedule: Q01DX009 (ip), vehicle: saline): 6 of 6
- survivor count (dose: 5.0 mg/kg/injection, schedule: Q01DX009 (sc), vehicle: saline): 6 of 6
- survivor count (dose: 5.0 mg/kg/injection, schedule: Q03HX008 (ip), vehicle: saline): 6 of 6
- survivor count (dose: 5.0 mg/kg/injection, schedule: Q03HX016 (ip), vehicle: saline): 6 of 6
- survivor count (dose: 5.0 mg/kg/injection, schedule: Q03HX024 (ip), vehicle: saline): 6 of 6
- survivor count (dose: 5.0 mg/kg/injection, schedule: Q04DX002 (ip), vehicle: other): 4 of 4
- survivor count (dose: 5.4 mg/kg/injection, schedule: Q04DX003 (ip), vehicle: other): 5 of 5
- survivor count (dose: 6.25 mg/kg/injection, schedule: Q01DX017 (ip), vehicle: saline): 6 of 6
- survivor count (dose: 6.25 mg/kg/injection, schedule: Q06HX004 (ip), vehicle: saline): 6 of 6
- survivor count (dose: 6.25 mg/kg/injection, schedule: Q06HX012 (ip), vehicle: saline): 6 of 6
- survivor count (dose: 7.5 mg/kg/injection, schedule: Q04DX003 (ip), vehicle: other): 4 of 4
- survivor count (dose: 8.4 mg/kg/injection, schedule: Q01DX005 (ip), vehicle: saline): 6 of 6
- survivor count (dose: 8.4 mg/kg/injection, schedule: Q01DX009 (ip), vehicle: saline): 6 of 6
- survivor count (dose: 8.4 mg/kg/injection, schedule: Q01DX009 (oral), vehicle: saline): 6 of 6
- survivor count (dose: 8.4 mg/kg/injection, schedule: Q01DX009 (sc), vehicle: saline): 6 of 6
- survivor count (dose: 8.4 mg/kg/injection, schedule: Q03HX008 (ip), vehicle: saline): 6 of 6
- survivor count (dose: 8.4 mg/kg/injection, schedule: Q03HX016 (ip), vehicle: saline): 6 of 6
- survivor count (dose: 8.4 mg/kg/injection, schedule: Q03HX024 (ip), vehicle: saline): 6 of 6
- survivor count (dose: 8.4 mg/kg/injection, schedule: Q04DX003 (ip), vehicle: saline): 6 of 6
- survivor count (dose: 9.0 mg/kg/injection, schedule: Q04DX003 (ip), vehicle: other): 5 of 5
- survivor count (dose: 10.0 mg/kg/injection, schedule: Q04DX002 (ip), vehicle: other): 4 of 4
- survivor count (dose: 10.8 mg/kg/injection, schedule: Q01DX001 (ip), vehicle: other): 5 of 5
- survivor count (dose: 12.5 mg/kg/injection, schedule: Q01DX001 (ip), vehicle: saline): 6 of 6
- survivor count (dose: 12.5 mg/kg/injection, schedule: Q01DX017 (ip), vehicle: saline): 3 of 6
- survivor count (dose: 12.5 mg/kg/injection, schedule: Q06HX004 (ip), vehicle: saline): 6 of 6
- survivor count (dose: 12.5 mg/kg/injection, schedule: Q06HX012 (ip), vehicle: saline): 6 of 6
- survivor count (dose: 12.5 mg/kg/injection, schedule: Q08DX003 (ip), vehicle: saline): 6 of 6
- survivor count (dose: 14.0 mg/kg/injection, schedule: Q01DX001 (ip), vehicle: saline): 6 of 6
- survivor count (dose: 14.0 mg/kg/injection, schedule: Q01DX001 (sc), vehicle: saline): 6 of 6
- survivor count (dose: 14.0 mg/kg/injection, schedule: Q01DX005 (ip), vehicle: saline): 6 of 6
- survivor count (dose: 14.0 mg/kg/injection, schedule: Q01DX009 (ip), vehicle: saline): 6 of 6
- survivor count (dose: 14.0 mg/kg/injection, schedule: Q01DX009 (oral), vehicle: saline): 5 of 6
- survivor count (dose: 14.0 mg/kg/injection, schedule: Q01DX009 (sc), vehicle: saline): 5 of 6
- survivor count (dose: 14.0 mg/kg/injection, schedule: Q03HX008 (ip), vehicle: saline): 6 of 6
- survivor count (dose: 14.0 mg/kg/injection, schedule: Q03HX016 (ip), vehicle: saline): 6 of 6
- survivor count (dose: 14.0 mg/kg/injection, schedule: Q03HX024 (ip), vehicle: saline): 6 of 6
- survivor count (dose: 14.0 mg/kg/injection, schedule: Q04DX003 (ip), vehicle: saline): 6 of 6
- survivor count (dose: 14.0 mg/kg/injection, schedule: Q08DX002 (ip), vehicle: saline): 6 of 6
- survivor count (dose: 15.0 mg/kg/injection, schedule: Q04DX003 (ip), vehicle: other): 4 of 4 and 5 of 5
- survivor count (dose: 18.0 mg/kg/injection, schedule: Q01DX001 (ip), vehicle: other): 5 of 5
- survivor count (dose: 18.0 mg/kg/injection, schedule: Q01DX001 (ip), vehicle: saline with Tween-80): 10 of 10
- survivor count (dose: 20.0 mg/kg/injection, schedule: Q04DX002 (ip), vehicle: other): 4 of 4
- survivor count (dose: 23.0 mg/kg/injection, schedule: Q01DX001 (ip), vehicle: saline): 6 of 6
- survivor count (dose: 23.0 mg/kg/injection, schedule: Q01DX001 (oral), vehicle: saline): 6 of 6
- survivor count (dose: 23.0 mg/kg/injection, schedule: Q01DX001 (sc), vehicle: saline): 6 of 6
- survivor count (dose: 23.0 mg/kg/injection, schedule: Q01DX005 (ip), vehicle: saline): 6 of 6
- survivor count (dose: 23.0 mg/kg/injection, schedule: Q01DX009 (ip), vehicle: saline): 6 of 6
- survivor count (dose: 23.0 mg/kg/injection, schedule: Q01DX009 (oral), vehicle: saline): 6 of 6
- survivor count (dose: 23.0 mg/kg/injection, schedule: Q01DX009 (sc), vehicle: saline): 6 of 6
- survivor count (dose: 23.0 mg/kg/injection, schedule: Q03HX008 (ip), vehicle: saline): 6 of 6
- survivor count (dose: 23.0 mg/kg/injection, schedule: Q03HX016 (ip), vehicle: saline): 6 of 6
- survivor count (dose: 23.0 mg/kg/injection, schedule: Q03HX024 (ip), vehicle: saline): 6 of 6
- survivor count (dose: 23.0 mg/kg/injection, schedule: Q04DX003 (ip), vehicle: saline): 6 of 6
- survivor count (dose: 23.0 mg/kg/injection, schedule: Q08DX002 (ip), vehicle: saline): 6 of 6
- survivor count (dose: 25.0 mg/kg/injection, schedule: Q01DX001 (ip), vehicle: saline): 6 of 6
- survivor count (dose: 25.0 mg/kg/injection, schedule: Q01DX017 (ip), vehicle: saline): 0 of 6
- survivor count (dose: 25.0 mg/kg/injection, schedule: Q04DX003 (ip), vehicle: other): 5 of 5
- survivor count (dose: 25.0 mg/kg/injection, schedule: Q06HX004 (ip), vehicle: saline): 4 of 6
- survivor count (dose: 25.0 mg/kg/injection, schedule: Q06HX012 (ip), vehicle: saline): 6 of 6
- survivor count (dose: 25.0 mg/kg/injection, schedule: Q08DX003 (ip), vehicle: saline): 6 of 6
- survivor count (dose: 28.0 mg/kg/injection, schedule: Q01DX001 (ip), vehicle: saline with Tween-80): 10 of 10
- survivor count (dose: 30.0 mg/kg/injection, schedule: Q01DX001 (ip), vehicle: other): 5 of 5
- survivor count (dose: 30.0 mg/kg/injection, schedule: Q04DX003 (ip), vehicle: other): 4 of 4
- survivor count (dose: 39.0 mg/kg/injection, schedule: Q01DX001 (ip), vehicle: saline): 6 of 6
- survivor count (dose: 39.0 mg/kg/injection, schedule: Q01DX001 (oral), vehicle: saline): 6 of 6
- survivor count (dose: 39.0 mg/kg/injection, schedule: Q01DX001 (sc), vehicle: saline): 6 of 6
- survivor count (dose: 39.0 mg/kg/injection, schedule: Q01DX005 (ip), vehicle: saline): 6 of 6
- survivor count (dose: 39.0 mg/kg/injection, schedule: Q01DX009 (oral), vehicle: saline): 6 of 6
- survivor count (dose: 39.0 mg/kg/injection, schedule: Q01DX009 (sc), vehicle: saline): 6 of 6
- survivor count (dose: 39.0 mg/kg/injection, schedule: Q04DX003 (ip), vehicle: saline): 6 of 6
- survivor count (dose: 39.0 mg/kg/injection, schedule: Q08DX002 (ip), vehicle: saline): 6 of 6
- survivor count (dose: 40.0 mg/kg/injection, schedule: Q04DX002 (ip), vehicle: other): 2 of 3
- survivor count (dose: 42.0 mg/kg/injection, schedule: Q01DX001 (ip), vehicle: saline with Tween-80): 10 of 10
- survivor count (dose: 50.0 mg/kg/injection, schedule: Q01DX001 (ip), vehicle: other): 5 of 5
- survivor count (dose: 50.0 mg/kg/injection, schedule: Q01DX001 (ip), vehicle: saline): 6 of 6
- survivor count (dose: 50.0 mg/kg/injection, schedule: Q06HX004 (ip), vehicle: saline): 1 of 6
- survivor count (dose: 50.0 mg/kg/injection, schedule: Q08DX003 (ip), vehicle: saline): 6 of 6
- survivor count (dose: 65.0 mg/kg/injection, schedule: Q01DX001 (ip), vehicle: saline): 6 of 6
- survivor count (dose: 65.0 mg/kg/injection, schedule: Q01DX001 (oral), vehicle: saline): 6 of 6
- survivor count (dose: 65.0 mg/kg/injection, schedule: Q01DX001 (sc), vehicle: saline): 6 of 6
- survivor count (dose: 65.0 mg/kg/injection, schedule: Q01DX009 (oral), vehicle: saline): 6 of 6
- survivor count (dose: 65.0 mg/kg/injection, schedule: Q04DX003 (ip), vehicle: saline): 6 of 6
- survivor count (dose: 65.0 mg/kg/injection, schedule: Q08DX002 (ip), vehicle: saline): 6 of 6
- survivor count (dose: 100.0 mg/kg/injection, schedule: Q01DX001 (ip), vehicle: saline): 3 of 6
- survivor count (dose: 100.0 mg/kg/injection, schedule: Q08DX003 (ip), vehicle: saline): 2 of 6
- survivor count (dose: 108.0 mg/kg/injection, schedule: Q01DX001 (ip), vehicle: saline): 6 of 6
- survivor count (dose: 108.0 mg/kg/injection, schedule: Q01DX001 (oral), vehicle: saline): 6 of 6
- survivor count (dose: 108.0 mg/kg/injection, schedule: Q01DX001 (sc), vehicle: saline): 6 of 6
- survivor count (dose: 108.0 mg/kg/injection, schedule: Q08DX002 (ip), vehicle: saline): 5 of 6
- survivor count (dose: 180.0 mg/kg/injection, schedule: Q01DX001 (oral), vehicle: saline): 6 of 6

Source: PubChem BioAssay AID186 (DTP/NCI, 2004)
